Laboratory results taken from article PMC11721293 (JCI Insight, 2025).

System: Huh7 cells
Conditions: initial screening

Clc1ccc(C(c2ccc(Cl)cc2)N2CCNCC2)cc1 [NCGC00354584]
CC50: 15.6 µM
